# Assay results: the supplement of paper PMC8728848
# This is one part of the list.
# Experiments:
# Assay in all cases: glycan array binding signal (z-score within array); higher = stronger binding
# Conditions in all cases: glycan notation: IUPAC condensed, linker removed
# [1] = biological target: Fuc(a1-2)[Gal(a1-3)]Gal
# Method in brief: (§1)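 Glycan array data came from 3228 arrays in the Consortium for Functional Glycomics database, and only arrays with an available protein sequence were kept. Glycan names were put into IUPAC-condensed notation, and columns mapping to the same glycan were averaged. The binding signal is a within-array Z-score, averaged across arrays of one protein sequence run at different concentrations or buffers and across linkers. A negative Z-score can be read as non-binding.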
# [2] = biological target: Fuc(a1-2)[Gal(a1-3)]Gal(b1-3)GlcNAc
# Method in brief: as §1
# [3] = biological target: Fuc(a1-2)[Gal(a1-3)]Gal(b1-3)GlcNAc(b1-2)Man(a1-3)[Fuc(a1-2)[Gal(a1-3)]Gal(b1-3)GlcNAc(b1-2)Man(a1-6)]Man(b1-4)GlcNAc(b1-4)GlcNAc
# Method in brief: as §1
# [4] = biological target: Fuc(a1-2)[Gal(a1-3)]Gal(b1-4)Glc
# Method in brief: as §1
# [5] = biological target: Fuc(a1-2)[Gal(a1-3)]Gal(b1-4)GlcNAc
# Method in brief: as §1
# [6] = biological target: Fuc(a1-2)[Gal(a1-3)]Gal(b1-4)GlcNAc(b1-2)Man(a1-3)[Fuc(a1-2)[Gal(a1-3)]Gal(b1-4)GlcNAc(b1-2)Man(a1-6)]Man(b1-4)GlcNAc(b1-4)GlcNAc
# Method in brief: as §1
# [7] = biological target: Fuc(a1-2)[Gal(a1-3)]Gal(b1-4)[Fuc(a1-3)]GlcNAc
# Method in brief: as §1
# [8] = biological target: Fuc(a1-2)[Gal(a1-4)]Gal(b1-4)GlcNAc
# Method in brief: as §1
# [9] = biological target: Fuc(a1-2)[GalNAc(a1-3)]Gal
# Method in brief: as §1
# [10] = biological target: Fuc(a1-2)[GalNAc(a1-3)]Gal(b1-3)GalNAc(a1-3)[Fuc(a1-2)]Gal(b1-4)GlcNAc
# Method in brief: as §1
# [11] = biological target: Fuc(a1-2)[GalNAc(a1-3)]Gal(b1-3)GlcNAc
# Method in brief: as §1
# [12] = biological target: Fuc(a1-2)[GalNAc(a1-3)]Gal(b1-3)GlcNAc(b1-2)Man(a1-3)[Fuc(a1-2)[GalNAc(a1-3)]Gal(b1-3)GlcNAc(b1-2)Man(a1-6)]Man(b1-4)GlcNAc(b1-4)GlcNAc
# Method in brief: as §1
# [13] = biological target: Fuc(a1-2)[GalNAc(a1-3)]Gal(b1-4)Glc
# Method in brief: as §1
# [14] = biological target: Fuc(a1-2)[GalNAc(a1-3)]Gal(b1-4)GlcNAc
# Method in brief: as §1
# [15] = biological target: Fuc(a1-2)[GalNAc(a1-3)]Gal(b1-4)GlcNAc(b1-2)Man(a1-3)[Fuc(a1-2)[GalNAc(a1-3)]Gal(b1-4)GlcNAc(b1-2)Man(a1-6)]Man(b1-4)GlcNAc(b1-4)GlcNAc
# Method in brief: as §1
# [16] = biological target: Fuc(a1-2)[GalNAc(a1-3)]Gal(b1-4)GlcNAc(b1-3)Gal(b1-4)GlcNAc
# Method in brief: as §1
# [17] = biological target: Fuc(a1-2)[GalNAc(a1-3)]Gal(b1-4)GlcNAc(b1-3)Gal(b1-4)GlcNAc(b1-3)Gal(b1-4)GlcNAc
# Method in brief: as §1
# [18] = biological target: Fuc(a1-2)[GalNAc(a1-3)]Gal(b1-4)[Fuc(a1-3)]GlcNAc
# Method in brief: as §1
# [19] = biological target: Fuc(a1-2)[GalNAc(a1-4)]Gal(b1-4)GlcNAc
# Method in brief: as §1
# [20] = biological target: Fuc(a1-2)[GalNAc(b1-3)]Gal
# Method in brief: as §1
# [21] = biological target: Fuc(a1-3)GlcNAc
# Method in brief: as §1
# [22] = biological target: Fuc(a1-3)[Gal(b1-4)]Glc6S
# Method in brief: as §1
# [23] = biological target: Fuc(a1-3)[Gal(b1-4)]GlcNAc
# Method in brief: as §1
# [24] = biological target: Fuc(a1-3)[Gal(b1-4)]GlcNAc(b1-2)Man(a1-3)[Fuc(a1-3)[Gal(b1-4)]GlcNAc(b1-2)Man(a1-6)]Man(b1-4)GlcNAc(b1-4)GlcNAc
# Method in brief: as §1
# [25] = biological target: Fuc(a1-3)[Gal(b1-4)]GlcNAc(b1-3)Gal(b1-3)[Fuc(a1-4)]GlcNAc
# Method in brief: as §1
# [26] = biological target: Fuc(a1-3)[Gal(b1-4)]GlcNAc(b1-3)GalNAc
# Method in brief: as §1
# [27] = biological target: Fuc(a1-3)[Gal(b1-4)]GlcNAc(b1-4)Gal(b1-4)[Fuc(a1-3)]GlcNAc
# Method in brief: as §1
# [28] = biological target: Fuc(a1-3)[Gal(b1-4)]GlcNAc(b1-4)Gal(b1-4)[Fuc(a1-3)]GlcNAc(b1-4)Gal(b1-4)[Fuc(a1-3)]GlcNAc
# Method in brief: as §1
# [29] = biological target: Fuc(a1-3)[Gal(b1-4)]GlcNAc(b1-6)[Gal(b1-3)GlcNAc(b1-3)]Gal(b1-4)Glc
# Method in brief: as §1
# [30] = biological target: Fuc(a1-3)[Gal(b1-4)]GlcNAc6S
# Method in brief: as §1
binder,measurement,setting,value
"PEB3 (Campylobacter jejuni), Q0PBL7 (protein) MKKIITLFGACALAFSMANADVNLYGPGGPHTALKDIANKYSEKTGVKVNVNFGPQATWFEKAKKDADILFGASDQSALAIASDFGKDFNVSKIKPLYFREAIILTQKGNPLKIKGLKDLANKKVRIVVPEGAGKSNTSGTGVWEDMIGRTQDIKTIQNFRNNIVAFVPNSGSARKLFAQDQADAWITWIDWSKSNPDIGTAVAIEKDLVVYRTFNVIAKEGASKETQDFIAYLSSKEAKEIFKKYGWRE",glycan array binding signal (z-score),[1],-0.136
same,glycan array binding signal (z-score),[2],-0.229
same,glycan array binding signal (z-score),[3],0.362
same,glycan array binding signal (z-score),[4],-1.35
same,glycan array binding signal (z-score),[5],0.283
same,glycan array binding signal (z-score),[6],1.42
same,glycan array binding signal (z-score),[7],-0.405
same,glycan array binding signal (z-score),[8],-0.346
same,glycan array binding signal (z-score),[9],0.501
same,glycan array binding signal (z-score),[10],-0.664
same,glycan array binding signal (z-score),[11],1
same,glycan array binding signal (z-score),[12],-0.335
same,glycan array binding signal (z-score),[13],-0.709
same,glycan array binding signal (z-score),[14],-0.483
same,glycan array binding signal (z-score),[15],-0.164
same,glycan array binding signal (z-score),[16],-0.54
same,glycan array binding signal (z-score),[17],0.771
same,glycan array binding signal (z-score),[18],1.79
same,glycan array binding signal (z-score),[19],-0.571
same,glycan array binding signal (z-score),[20],-0.27
same,glycan array binding signal (z-score),[21],-0.459
same,glycan array binding signal (z-score),[22],0.99
same,glycan array binding signal (z-score),[23],0.494
same,glycan array binding signal (z-score),[24],-0.554
same,glycan array binding signal (z-score),[25],0.359
same,glycan array binding signal (z-score),[26],-0.964
same,glycan array binding signal (z-score),[27],1.05
same,glycan array binding signal (z-score),[28],0.144
same,glycan array binding signal (z-score),[29],-1.02
same,glycan array binding signal (z-score),[30],0.763

# 2 records picked at random from those above:
binder,measurement,setting,value
"PEB3 (Campylobacter jejuni), Q0PBL7 (protein) MKKIITLFGACALAFSMANADVNLYGPGGPHTALKDIANKYSEKTGVKVNVNFGPQATWFEKAKKDADILFGASDQSALAIASDFGKDFNVSKIKPLYFREAIILTQKGNPLKIKGLKDLANKKVRIVVPEGAGKSNTSGTGVWEDMIGRTQDIKTIQNFRNNIVAFVPNSGSARKLFAQDQADAWITWIDWSKSNPDIGTAVAIEKDLVVYRTFNVIAKEGASKETQDFIAYLSSKEAKEIFKKYGWRE",glycan array binding signal (z-score),[21],-0.459
same,glycan array binding signal (z-score),[12],-0.335
